# Some of the results follow. Values are raw readings; no control value is given beside them.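 Primary screen: polymyxin B was added at a level permeabilizing Salmonella outer membranes while sparing inner membranes. DMSO wells, both with and without polymyxin B, established maximum growth. Plate-to-plate variation meant each plate was ranked on its own, and the lowest-OD600 compounds were selected as hits.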
# Tested on: Salmonella enterica serovar Typhimurium SL1344
# Experiment: bacterial growth OD600 after 18 h with compound and polymyxin B; higher = more bacterial growth (less inhibition)
# Conditions: 50 µM, Mueller-Hinton broth
Structure (SMILES),bacterial growth OD600 (polymyxin B 0.75 µg/mL),bacterial growth OD600 (polymyxin B 1 µg/mL)
O=C(NC1CCCC1)c1ccc(N2CCC(NCc3ccc4c(c3)OCO4)CC2)cc1,0.717,
COCCN(C)C(=O)CC1(c2ccccc2)CC(=O)N(CCCOc2cccnc2)C1=O (configuration not stated),0.844,
CSCCNC(=O)C1CCN(c2nc(C)c3cc(C(C)C)ccc3n2)CC1,0.877,
COc1ccc(OC)c(-c2nc(CN3CCCCC3c3nccs3)c(C)o2)c1 (configuration not stated),,0.502
COCCN(Cc1cn(C)nc1-c1ccc(Oc2ccccc2)cc1)C(C)C,,1.01
CCN(CC)CC(=O)N1CCCC(C(=O)Nc2cccc(-c3ccc(F)cc3)c2)C1 (configuration not stated),,1
CC(=O)NCC(=O)N1CCCC(CCc2c(F)cccc2F)C1 (configuration not stated),0.798,
CN(CC1(O)CCCN(CC2CCC2)C1=O)C1CCCCC1 (configuration not stated),,0.955
CCn1c(-c2cccnc2)nc2cc(NC(=O)COC)cc(C(=O)NCc3ccccc3OC)c21,0.862,
COc1ccc(NC(=O)CCC2CCCN(Cc3cnc(SC)nc3)C2)c(C)c1 (configuration not stated),,0.863
CC(=O)N1CCCC1C(=O)Nc1ccc(-c2nc3ccccc3o2)cc1 (configuration not stated),,0.998
O=C(NC1CCc2ccccc21)c1coc(COc2ccc3c(c2)OCO3)n1 (configuration not stated),,0.953
CCn1nc(C)cc1C(=O)N1CCCC(Nc2ccc(F)c(F)c2)C1 (configuration not stated),,0.943
O=C(c1cc2ccccc2o1)N1CCC2(CCCN(Cc3ccccc3F)C2)C1 (configuration not stated),,0.027
COc1ccccc1CCN1CCCC(CN(C)Cc2cnc(SC)nc2)C1 (configuration not stated),0.77,
C=CCCC(=O)N1CCCCC1C(=O)Nc1cccc(-c2nnc(C)s2)c1 (configuration not stated),0.744,

# In the list so far, 2 have an aryl thioether with sulfur outside any ring:
Structure (SMILES),bacterial growth OD600 (polymyxin B 0.75 µg/mL),bacterial growth OD600 (polymyxin B 1 µg/mL)
COc1ccc(NC(=O)CCC2CCCN(Cc3cnc(SC)nc3)C2)c(C)c1 (configuration not stated),,0.863
COc1ccccc1CCN1CCCC(CN(C)Cc2cnc(SC)nc2)C1 (configuration not stated),0.77,

# The listing continues.

Structure (SMILES),bacterial growth OD600 (polymyxin B 0.75 µg/mL),bacterial growth OD600 (polymyxin B 1 µg/mL)
CCN1CCN(C(=O)c2ccc(N3CCC(NCc4cccc(-n5cccn5)c4)CC3)cc2)CC1,0.856,
COC(=O)CNC(=O)c1coc(COc2ccc(F)cc2)n1,,1.12
O=C1CCC(C(=O)N2CCN(c3ccccc3)C(=O)C2)CN1Cc1ccc(Cl)cc1 (configuration not stated),,0.953
COC(=O)CN(C)C(=O)Cc1c2c(n(CC(C)C)c1C)CC(C)(C)CC2=O,,0.852
CSc1ccc(CN2CCN(Cc3ccccc3F)C(CCO)C2)cc1 (configuration not stated),,1.05
Cc1ncsc1CCC(=O)N1CCCC(C(=O)c2ccc(Oc3ccccc3)cc2)C1 (configuration not stated),,0.01
O=C(Nc1ccc(Oc2ccccc2F)cc1)C1CCCCN1C(=O)c1ccccn1 (configuration not stated),,0.902
CN(Cc1nc(Cc2ccccc2F)no1)Cc1cccc2ncccc12,,1.01
COc1cccc(-c2ccc(NC(=O)C3CCCN3C(=O)c3ccco3)cc2)c1 (configuration not stated),,0.856
COc1cccc(C(C)N(C)Cc2cn(C)nc2-c2cccc(Cl)c2)c1 (configuration not stated),,0.89
COCCn1cnc2cc(C(=O)N(C)CCC3CCCCO3)cc(NC(=O)c3cccnc3)c21 (configuration not stated),0.783,
CC(C)Cn1c(CN(C)CCOc2ccccc2)cnc1S(C)(=O)=O,,0.859
CCOC(=O)C1(Cc2ccc(F)cc2)CCCN(C(=O)c2ccccc2C(C)=O)C1 (configuration not stated),,0.881
CCOC(=O)C1(Cc2ccc(F)cc2F)CCCN(C2CCN(C(C)=O)CC2)C1 (configuration not stated),,0.727
CN1CCN([C@@H]2CCN(CCCC3CCCC3)C[C@H]2O)CC1,,1.1
COc1cc(C)ccc1OCc1nc(C(=O)NC2CCOC(C)(C)C2)co1 (configuration not stated),,0.975
